The values below are quoted from earlier work in paper PMC10734620, “A blinded in vitro analysis of the intrinsic immunogenicity of hepatotoxic drugs: implications for preclinical risk assessment” (Toxicological Sciences, 2023).

Details of data set [1]: method as in Sakatis et al., 2012; Schofield et al., 2021. Conditions: Positive = above the threshold of concern; assays not listed negative; ref Sakatis et al., 2012; Schofield et al., 2021; cited from earlier work.
Details of data set [2]: method as in FDA DILIrank datasets. Particulars: ref FDA DILIrank datasets; cited from earlier work.
On the set-up of data set [3]: method as in earlier work. Conditions: ref National Institute of Diabetes and Digestive and Kidney Diseases (2012); cited from earlier work.

As for `O=C(O)c1cn(C2CC2)c2cc(N3CCNCC3)c(F)cc2c1=O` [Ciprofloxacin], in data set [1], the “Routine Assays that are Positive (GSK)” value was “None”.

Regarding `CN(C)CCOC(c1ccccc1)c1ccccc1` [Diphenhydramine], the “FDA Clinical Hepatotoxicity Concern” value in data set [2] was “No”. Further, the “LiverTox annotation: likelihood as cause of clinically apparent liver injury” value in data set [3] was “Unlikely to be a cause of clinically apparent liver injury”. Also, the “Routine Assays that are Positive (GSK)” value in data set [1] is recorded as “None”.
